Reference: patent publication US20030009023A1 (US Dept. of Health and Human Services, published 2003)
No constants are given. Whether binding was seen depends on the method and setting. For some assays here: In cells and extracts the contact can be indirect. Some binding calls cover weakened binding; strength is not graded here. For some assays here: Where a sequence is shown, tags or fusion partners need not be part of it.

Experiments:
[1] = target: T1, HA-tagged mouse Wnt-5A (mouse) (UniProt P22725); experiment: co-immunoprecipitation (referred to)
T1 sequence (looked up): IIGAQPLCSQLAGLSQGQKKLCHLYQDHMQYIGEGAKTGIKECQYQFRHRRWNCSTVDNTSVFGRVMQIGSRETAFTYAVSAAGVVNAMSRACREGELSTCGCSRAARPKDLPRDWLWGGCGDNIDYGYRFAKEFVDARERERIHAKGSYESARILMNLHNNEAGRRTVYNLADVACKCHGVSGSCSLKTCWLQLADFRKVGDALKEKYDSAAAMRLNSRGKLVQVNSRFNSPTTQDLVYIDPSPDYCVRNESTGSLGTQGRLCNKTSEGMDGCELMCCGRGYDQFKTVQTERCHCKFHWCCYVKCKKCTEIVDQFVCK

Xwnt-8^myc [2] = target: T2, Xwnt-8^myc (Xenopus, UniProt P28026 23-358, limits assumed); experiment: co-immunoprecipitation with anti-myc antibody
T2 construct: also called myc-tagged XWnt-8
T2 sequence (looked up): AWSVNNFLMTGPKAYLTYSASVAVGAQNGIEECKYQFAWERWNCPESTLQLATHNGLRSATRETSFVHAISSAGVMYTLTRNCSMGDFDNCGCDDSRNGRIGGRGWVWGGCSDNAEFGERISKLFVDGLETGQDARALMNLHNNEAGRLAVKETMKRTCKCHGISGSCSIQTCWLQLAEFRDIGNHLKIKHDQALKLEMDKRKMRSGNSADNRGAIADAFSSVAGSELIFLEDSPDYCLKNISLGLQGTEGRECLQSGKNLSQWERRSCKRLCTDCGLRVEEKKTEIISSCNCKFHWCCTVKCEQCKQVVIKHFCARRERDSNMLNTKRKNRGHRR

Xwnt-8^myc [3] = target: T2, Xwnt-8^myc; experiment: co-immunoprecipitation from COS7 cell lysates
[4] = target: T1, HA-tagged mouse Wnt-5A (mouse); experiment: co-immunoprecipitation with different washing conditions
Xwnt-8^myc [5] = target: T2, Xwnt-8^myc; experiment: co-immunoprecipitation after in vitro cotranslation
[6] = target: T1, HA-tagged mouse Wnt-5A (mouse); experiment: anti-HA immunoprecipitation of co-transfected COS7 lysates, immunoblot with N374-PEP
Xwnt-8^myc [7] = target: T2, Xwnt-8^myc; experiment: co-immunoprecipitation; reticulocyte lysate with microsomal membranes and transfected COS cells
HA-tagged murine Wnt-1 = target: T3, HA-tagged murine Wnt-1 (mouse, UniProt P04426 28-370); experiment: co-immunoprecipitation from lysates of COS7 cells co-transfected with Wnt-1 and deletion constructs
T3 construct: also called pLNCWnt1HA; pLNCW1-HA; not shown: hemagglutinin (HA) tag near the C-terminus
T3 sequence (looked up): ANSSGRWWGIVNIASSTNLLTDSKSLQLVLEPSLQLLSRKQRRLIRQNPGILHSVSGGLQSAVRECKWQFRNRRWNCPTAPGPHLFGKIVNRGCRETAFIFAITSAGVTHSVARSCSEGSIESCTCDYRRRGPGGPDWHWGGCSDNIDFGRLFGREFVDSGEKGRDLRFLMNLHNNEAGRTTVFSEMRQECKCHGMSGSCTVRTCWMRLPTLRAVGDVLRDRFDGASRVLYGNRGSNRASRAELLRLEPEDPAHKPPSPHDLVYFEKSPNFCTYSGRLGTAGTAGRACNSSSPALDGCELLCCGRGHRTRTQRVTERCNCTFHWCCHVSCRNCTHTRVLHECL

Measured: binding

B1: bovine Frzb (other)
chain: AACEPVRIPLCKSLPWNMTKMPNHLHHSTQANAILAIEQFEGLLGTHCSPDLLFFLCAMYAPICTIDFQHEPIKPCKSVCERARQGCEPILIKYRHSWPESLACEELPVYDRGVCISPEAIVTADGADFPMDSSNGNCRGASSERCKCKPVRATQKTYFRNNYNYVIRAKVKEIKTKCHDVTAVVEVKEILKASLVNIPRETVNLYTSSGCLCPPLNVNEEYLIMGYEDEERSRLLLVEGSIAEKWKDRLGKKVKRWDMKLRHLGLNTSDSSHSDSTQSQKPGRNSNSRQARN
notes: Full-length bovine Frzb expressed from pcDNA3 (pFrzb) in COS7 cells, or translated in vitro with microsomal membranes, or from injected mRNA; also called Bfrzb; BFrzb
binds: [1] | Xwnt-8^myc [2] | Xwnt-8^myc [3] | [4] | Xwnt-8^myc [5] | [6] | Xwnt-8^myc [7]

B2: Frzb deletion construct delta c-term (protein)
chain: AACEPVRIPLCKSLPWNMTKMPNHLHHSTQANAILAIEQFEGLLGTHCSPDLLFFLCAMYAPICTIDFQHEPIKPCKSVCERARQGCEPILIKYRHSWPESLACEELPVYDRGVCISPEAIVTADGANSNSRQARN
binds: HA-tagged murine Wnt-1
